Experimental data published in US11472723B2, “Method for removing heavy metals from an aqueous solution” (NEWSOUTH INNOVATIONS PTY LIMITED, priority 2016, dated 2022).

Assay: Ion flotation of arsenic solution in bubble column, As by ICP-MS
Procedure: An ICP-MS (Perkin Elmer, NexION 300D with Universal cell technology) was used to determine the arsenic, mercury and lead solution concentrations.
In a typical experiment, 0.01 M of the single chain octanoyl-cysteine surfactant was dissolved (with stirring and heating to not more than 65° C.) in a solution of arsenic (HAsO4^2−) 5 ppm containing NaOH 0.1 M (to keep the pH at about 8), which was then made up to 100 ml using Milli-Q water.
Two samples were taken after 30, 60 and 90 minutes and the arsenic concentration of each sample was determined by ICP-MS. The upper outlet foam was also collected in a waste container using an outlet tube. […]

SMILES | foaming in the flotation system (in words)
CCCCCCCCCCCC(=O)N[C@@H](CS)C(=O)O | good foaming character
CCCCCCCCSC[C@H](N)C(=O)O [S-octyl cysteine, reference compound] | did not produce sufficient foam
